Results are given in words; binding and its absence hold for the method and conditions named. In cells and extracts the contact can be indirect. Some results given as binding are weak or reduced against the parent protein; the word gives no strength.
Biological target: GST-RagB (UniProt Q5VZM2)
Experiment: pull-down; co-purification: GST-RagA or GST-RagB cotransfected with FLAG-RagC in HEK293T, lysis buffer A (0.3% CHAPS, 150 mM NaCl), GSH-Sepharose 2 h at 4 °C, eluted with 10 mM GSH

Chains of the proteins cited; added tags and fusions are not shown. Lines headed by an entry give the natural chain unless they say otherwise; changes in a name come on top. A line that says so, or that is headed by a name, gives the form on record, which may keep a tag or linker.
GST-RagB (Q5VZM2, form named): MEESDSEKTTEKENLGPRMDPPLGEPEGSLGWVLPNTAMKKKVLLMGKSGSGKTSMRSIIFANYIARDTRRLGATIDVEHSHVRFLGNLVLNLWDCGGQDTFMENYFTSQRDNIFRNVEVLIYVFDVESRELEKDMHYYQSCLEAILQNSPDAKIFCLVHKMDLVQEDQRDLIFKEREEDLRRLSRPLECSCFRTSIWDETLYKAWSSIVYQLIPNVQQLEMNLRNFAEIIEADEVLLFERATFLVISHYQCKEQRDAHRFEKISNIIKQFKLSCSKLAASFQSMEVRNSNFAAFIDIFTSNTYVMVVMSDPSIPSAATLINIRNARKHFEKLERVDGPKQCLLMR
UniProt Q9HB90: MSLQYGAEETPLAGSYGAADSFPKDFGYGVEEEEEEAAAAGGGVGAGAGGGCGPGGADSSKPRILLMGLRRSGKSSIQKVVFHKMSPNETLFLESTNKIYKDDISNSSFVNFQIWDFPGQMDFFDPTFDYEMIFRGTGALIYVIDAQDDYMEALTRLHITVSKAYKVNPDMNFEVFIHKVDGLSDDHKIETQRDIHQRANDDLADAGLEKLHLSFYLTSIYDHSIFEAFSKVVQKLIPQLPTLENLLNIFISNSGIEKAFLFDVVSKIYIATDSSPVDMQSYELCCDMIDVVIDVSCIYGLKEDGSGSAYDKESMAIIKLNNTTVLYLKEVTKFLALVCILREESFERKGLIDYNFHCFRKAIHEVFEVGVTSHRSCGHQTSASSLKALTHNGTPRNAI

FLAG-RagC (from UniProt Q9HB90 1-399)
binding: binds

— PMC3908400
